The test system of the assay is PAF-induced platelet aggregation (platelet-rich plasma). Description: PAF antagonism, in vitro platelet aggregation assay. Type of assay: cell-based. To be noted: dose giving 50 % PAF antagonism, human PRP, PAF 1-5×10^-8 M. The procedure:
Blood was centrifuged at 110×g for 15 min. and the supernatant PRP carefully transferred into a polypropylene tube. Platelet-poor-plasma (PPP) was prepared by centrifuging PRP at 12,000×g for 2 min. in a Beckman Microfuge B. PRP was used within 3 hours of drawing the blood.
Platelet Aggregation Assay: When an aggregating agent such as PAF is added to PRP, platelets aggregate. An aggregometer quantifies this aggregation by measuring light (infra-red) transmission through PRP and comparing to PPP. The aggregation assays were performed using a dual-channel aggregometer (Model 440, Chrono-Log Corp., Hayertown, Pa.). PRP (0.45 ml) in aggregometer curettes was continually stirred (37° C.). Solutions of test compounds or vehicle were added to the PRP, and after incubation for 2 min., 10-15 μl aliquots of PAF solution were added so as to achieve a final concentration of 1-5×10^-8 M. Incubations were continued until the increase in light transmission reached a maximum (usually about 2 min). Values for inhibition were calculated by comparing maximal aggregation obtained in the absence and the presence of the compound. For each experiment, a standard PAF antagonist, such as alprazolam, was used as a positive internal control. […] The test results are shown below in Tables Ia, Ib and Ic.

What is called IC50 is the concentration that gives 50% inhibition.

In turn, `CCOC(=O)N1CCC(=C2c3ccc(Cl)cc3CCc3cccnc32)CC1` [R = OC2 H5, R^3 = Cl, R4 = H, Z = O, 8-chloro-6,11-dihydro-11-(1-ethoxycarbonyl-4-piperidylidene)-5H-benzo[5,6]cyclohepta[1,2-b]pyridine, reference compound] showed a 50% inhibitory concentration (IC50) of 175 µM.

Source of the values: patent publication US5438062A, “Benzo(5,6)cycloheptapyridines, compositions and methods of use” (Schering Corporation, priority 1987, dated 1995).
